Laboratory results reported in PubChem BioAssay AID1259354 (Paczesny and Yang Labs, IUPUI and University of Michigan, 2018).
Values joined by “and” are separate entries in the source; they are usually repeats but may differ in a detail not shown here. Equal values may be shown once. Out of some 78,000 compounds screened, about 1,800 (2.3%) were called active. Inconclusive means that the source gave no clear call. Such entries were picked first, then a sample of the others. Rule as the data show it: active = inhibition above about 30%; inconclusive = mostly about 10% to 28%; inactive = weaker than that. Some structures have more than one record in an assay (separate samples or runs), and their calls can disagree.

By UniProt entry, the sequences of proteins in these tests, tags left out. Where a name states a change or a piece, a line headed by the entry shows the natural chain unless it says otherwise.
UniProt Q01638: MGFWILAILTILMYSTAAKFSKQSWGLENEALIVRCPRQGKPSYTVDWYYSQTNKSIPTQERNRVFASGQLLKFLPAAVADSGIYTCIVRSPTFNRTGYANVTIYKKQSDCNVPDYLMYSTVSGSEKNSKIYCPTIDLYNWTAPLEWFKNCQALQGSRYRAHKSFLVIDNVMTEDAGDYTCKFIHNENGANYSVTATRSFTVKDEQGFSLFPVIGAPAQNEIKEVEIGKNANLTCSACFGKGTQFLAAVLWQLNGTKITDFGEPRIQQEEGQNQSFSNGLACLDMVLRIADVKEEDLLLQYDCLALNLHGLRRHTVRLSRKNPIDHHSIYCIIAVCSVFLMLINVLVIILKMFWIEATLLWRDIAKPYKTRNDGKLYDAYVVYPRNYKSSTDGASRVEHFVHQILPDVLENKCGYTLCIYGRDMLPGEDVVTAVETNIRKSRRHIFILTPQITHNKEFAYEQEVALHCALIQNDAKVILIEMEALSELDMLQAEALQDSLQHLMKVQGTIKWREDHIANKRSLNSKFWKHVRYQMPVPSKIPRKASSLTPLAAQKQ

Target: Interleukin-1 receptor-like 1 (Homo sapiens) (UniProt Q01638)
Experiment: blocks human ST2 binding to IL-33, primary screen, biochemical, AlphaLISA (AID 1259354)
Details: AlphaLISA ST2-Fc/biotin-IL-33 interaction, 1 h; at 17 µM, stronger effect = higher value

| Compound | inhibition | outcome |
| --- | --- | --- |
| COCc1cc(CN(C)c2ncnc3[nH]ccc23)[nH]n1 | inconclusive: 24% | – |
| O=C(NC1=NCCS1)c1ccc2snnc2c1 | inconclusive: 19% | – |
| COCCNc1c2c(c(C#N)c3nc4ccccc4n13)CCC2 | inconclusive: 22% | – |
| O=C1c2cccc3cccc(c23)C(=O)N1CC1CCN(CC(O)COc2ccc(F)cc2)CC1 (stereo not drawn) | inconclusive: 14% | – |
| CCC1CN(Cc2ncccc2F)CCN1C(C)C (stereo not drawn) | inconclusive: 17% | – |
| Cc1ccc(SC2=C(N3CCOCC3)C(=O)N(c3cc(C)cc(C)c3)C2=O)cc1 | active: 43% | – |
| O=[N+]([O-])c1cnc(N2CCN(Cc3ccccc3)CC2)c([N+](=O)[O-])c1 | active: 30% | – |
| COC(=O)[C@]1(C)N[C@H](c2csc(-c3ccccc3)n2)[C@@H]2C(=O)N(C)C(=O)[C@@H]21 | inconclusive: 12% | – |
| COc1ccc(C2C(C#N)C(=O)NC(=O)C2[n+]2ccccc2)cc1 (stereo not drawn) | inconclusive: 13% | – |
| O=C(NCC1CCCO1)c1ccc(N2CCCC2=O)cc1 (stereo not drawn) | inconclusive: 13% | – |
| COc1ccccc1N1CCN(c2ncnc3sc(C(=O)O)c(C)c23)CC1 | active: 40% | inactive |
| CC(C)c1ccc(OCC(=O)Nc2ccccc2[N+](=O)[O-])cc1 | inconclusive: 28% | – |
| COc1ccc2c(c1)CN(c1ccc(C)c(C)c1)CO2 | inconclusive: 18% | – |
| CC(C)C1CN(C(=O)Cn2cncn2)CCC(=O)N1CC1CC1 (stereo not drawn) | inconclusive: 11% | – |
| CCc1ccc2oc(=O)cc(CN3CCC(C(O)c4nccn4C)CC3)c2c1 (stereo not drawn) | inconclusive: 15% | – |
| O=C(Nc1ccc(I)cc1)[C@H]1[C@H](C(=O)O)[C@H]2C=C[C@@H]1C2 | inactive | – |
| COc1ccccc1-n1c(SCC(=O)Nc2ccc3c(c2)OCO3)nc2c(c1=O)SCC2 | inconclusive: 25% | – |
| CCOc1ccc(NC(=O)C(=O)c2ccccc2NC(C)=O)cc1 | inactive | – |
| N#Cc1ccc(C(=O)Nc2ccc3n(c2=O)C[C@H]2C[C@@H]3CN(C(=O)c3ccccn3)C2)cc1 | inconclusive: 27% | – |
| CSc1ccc(-c2nc(CSCC(=O)NCCC(C)C)c(C)o2)cc1 | inconclusive: 10% | – |
| CCC(CO)Nc1nc2c(c(=O)n(C)c(=O)n2C)n1C (stereo not drawn) | inconclusive: 15% | – |
| COc1ccccc1-c1cn2c(C(=O)N3CCC(N4CCSCC4)CC3)csc2n1 | inconclusive: 13% | – |
| CC1=C[C@@H](CN2CCN(CCO)CC2)[C@H](C(C)C)C[C@H]1Cc1nnc(-c2ccccc2F)o1 | inconclusive: 25% | – |

| Compound | inhibition | outcome |
| --- | --- | --- |
| CCC(C)N1C(=O)CN(C2CCCCC2)C(=O)C1c1ccc(OC)cc1 (stereo not drawn) | inconclusive: 12% | – |
| CC(C)Cn1nc(C(=O)O)c2c1CCC(N1CCOc3ccccc3C1)C2 (stereo not drawn) | inconclusive: 11% | – |
| O=C(NCCc1ccccc1)c1ccc2c(c1)NC(=O)C(N1CCCC1)S2 (stereo not drawn) | inconclusive: 11% | – |
| Cn1c(=O)c2c(nc(Oc3ccc4c(c3)OCO4)n2Cc2ccccc2Cl)n(C)c1=O | inconclusive: 14% | – |
| COc1cc(C(=O)N2CCN=C2SCc2ccccc2C)cc(OC)c1OC | inactive | – |
| CNCC(=O)N1CCCCC1CCN1CCCC1=O (stereo not drawn) | inactive | – |
| O=C1CCCC2=C1C(c1cccc(O)c1)n1nc(SCc3ccccc3F)nc1N2 (stereo not drawn) | inconclusive: 13% | – |
| CCOc1ccccc1OC(=O)c1cc2cc(Br)ccc2oc1=O | inconclusive: 14% | – |
| c1ccc(COCCN2CCCC3(CCNC3)C2)cc1 (stereo not drawn) | inactive | – |
| O=C(O)c1ccc2c(c1)C(=O)NC2=O | inconclusive: 17% | – |
| O=C(CN1CCCCC1)N1CCCc2c1c(=O)oc1ccc(OCc3ccccc3)cc21 | inconclusive: 26% | – |
| O=C1CSC(c2ccc(Br)cc2)N1c1ccccc1 (stereo not drawn) | inconclusive: 11% | – |
| CCC1CN(C(=O)c2cn3cccnc3n2)CCC(=O)N1Cc1ccccc1 (stereo not drawn) | inconclusive: 24% | – |
| O=C(c1ccccc1[N+](=O)[O-])N1CCN(c2ccccc2)CC1 | inactive | – |
| Cc1c(-c2ccc(Cl)cc2)n[nH]c1C(=O)N1CCCC(O)(CN(C)C)C1 (stereo not drawn) | inactive | – |
| CC1=C(C(=O)Nc2ccccc2C)C(c2ccccc2Cl)C(C#N)=C(SCC(N)=O)N1 (stereo not drawn) | inconclusive: 11% | – |
| C=CCN(C(C)=O)c1nc(C)c(Br)c(OC)n1 | inconclusive: 10% | – |
| O=C1OC(c2cccc([N+](=O)[O-])c2)=N/C1=C\c1ccccc1 | inconclusive: 10% | – |
| CC(C)(C)C1CC=C2C(C#N)=C(N)C(C#N)(C#N)C(c3c[nH]c4ccccc34)C2C1 (stereo not drawn) | inconclusive: 28% | – |
| CSc1nc(N)nc(SC/C=C/c2ccccc2)c1C#N | inconclusive: 21% and inconclusive: 13% | – |
| CC(c1cccc(-c2ccc(Cn3ccnc3)cc2)c1)N(C)C (stereo not drawn) | inconclusive: 20% | – |
| CCC1CCCCN1CCCNC(=O)c1cn(C)c(=O)c2c1c1ccccc1n2C (stereo not drawn) | inactive | – |
| COCCOc1ccc(C(=O)N[C@@H]2CN(C3CCN(C)CC3)CCC[C@H]2O)cc1 | inconclusive: 16% | – |

| Compound | inhibition | outcome |
| --- | --- | --- |
| CC(C)NC(=O)NC[C@H]1O[C@@H](CC(=O)NCCN2CCOCC2)[C@H](O)[C@@H]1O | inactive | – |
| Cc1nc2ccccc2nc(C)c1=NOCc1ccc(Cl)c(Cl)c1 | inconclusive: 12% | – |
| CC(C)c1cc(C(=O)NCc2noc(-c3c(F)cccc3F)n2)no1 | inconclusive: 15% | – |
| COc1ccc(NC(=O)c2cc3cc4ccc(OC)cc4nc3s2)c(OC)c1 | inconclusive: 21% | – |
| Cc1nc2ccccc2c(=O)n1CC(=O)NCc1ccccc1 | inactive | – |
| Cc1cccc(NS(=O)(=O)c2c(C)[nH]c(=O)[nH]c2=O)c1C | inactive | – |
| Cc1ccccc1C(=O)Nc1nnc(SCC(=O)NCC2CCCO2)s1 (stereo not drawn) | inactive | – |
| CC(C)[C@H]1CN(C)CCN1C(=O)c1ccc(OC2CCN(C(=O)C3CC3)CC2)cc1 | inconclusive: 19% | – |
| COc1ccc(C2NC(=O)c3ccccc3O2)cc1OC (stereo not drawn) | inconclusive: 18% | – |
| O=C(Nc1nnc(-c2cccs2)o1)c1ccc(S(=O)(=O)N2CCCc3ccccc32)cc1 | inactive | – |
| N#Cc1c(C(F)(F)F)cc(-c2cccs2)nc1SCC(=O)Nc1ccc(C(N)=O)cc1 | inconclusive: 10% | – |
| CCCC(=O)N1c2ccccc2-c2nnc(SC)nc2OC1c1cccs1 (stereo not drawn) | inconclusive: 13% | – |
| NC(=O)c1nn(-c2ccccc2)nc1NC(=O)Cn1nnc(-c2ccc3c(c2)OCO3)n1 | inconclusive: 19% | – |
| O=C(O)CCCN1C(=O)S/C(=C\C=C\c2ccccc2)C1=O | inconclusive: 11% | – |
| CCn1nc(C)c(NC(=O)CNC(C)Cn2nc(C)cc2C)c1C (stereo not drawn) | inconclusive: 10% | – |
| O=C(O)COc1ccc(-n2ccnc2-c2ccccn2)cc1Cl | inconclusive: 12% | – |
| O=C(O)c1cc(-c2cc(C(=O)O)c3ccccc3n2)nc2ccccc12 | inactive | – |
| COc1ccc(CN2CCC(N3CCCCC3)CC2)c(OC)c1C | inconclusive: 19% | – |
| COc1ccc(OC)c(NC(=O)c2c(OC)cccc2OC)c1 | active: 35% | – |
| CCOc1ccc(C2CC(=O)N3CN(c4ccccc4C)CSC3=C2C#N)cc1OC (stereo not drawn) | inconclusive: 15% | – |
| OCC(O)(c1ccccc1)c1ccccc1 | inactive | – |
| O=C(c1ccc2c(c1)C1C=CCC1C(c1ccc(Cl)cc1)N2)N1CCOCC1 (stereo not drawn) | active: 63% | – |
| CC1(C)CC(=O)C2=C(C1)Nc1ccccc1N(C(=O)C(F)(F)F)C2c1cccc([N+](=O)[O-])c1 (stereo not drawn) | inactive | – |

2 entries from above, tab-delimited.
Compound	inhibition	outcome
COc1ccc(NC(=O)c2cc3cc4ccc(OC)cc4nc3s2)c(OC)c1	inconclusive: 21%	–
CCCC(=O)N1c2ccccc2-c2nnc(SC)nc2OC1c1cccs1 (stereo not drawn)	inconclusive: 13%	–

Continuation:

| Compound | inhibition | outcome |
| --- | --- | --- |
| Cc1[nH]cnc1CN1CCC(CNS(=O)(=O)c2cccs2)C1 (stereo not drawn) | inactive | – |
| Cc1nc(NCCN2CCOCC2)c2c3c(sc2n1)CCCC3 | inconclusive: 17% | – |
| CC(Cc1c[nH]c2ccccc12)NC(N)=O (stereo not drawn) | inactive | – |
| COc1ccccc1CCN1CCCC(CN(C)Cc2nc3ccccc3n2C)C1 (stereo not drawn) | inactive | – |
| COc1ccc(C(=O)N2C[C@@H](O)[C@H](NCCc3cnc[nH]3)C2)cc1 | inconclusive: 13% | – |
| CCc1cc2c(=O)oc(-c3ccc(Br)cc3)nc2s1 | inconclusive: 11% | – |
| COc1ccc(NC(=O)C(C)Oc2ccccc2)c([N+](=O)[O-])c1 (stereo not drawn) | inconclusive: 26% | – |
| O=[N+]([O-])c1cc([N+](=O)[O-])c2cn(-c3ccc(OC(F)(F)F)cc3)nc2c1 | inconclusive: 27% | – |
| Cc1ccc([N+](=O)[O-])cc1NS(=O)(=O)c1cc(Cl)ccc1Cl | inconclusive: 15% | – |
| Cc1cc2ccccc2n1CCNC(=O)C1c2ccccc2Oc2ccccc21 | inactive | – |
| CCOC(=O)C(C)Sc1nc2c(c(=O)n1-c1ccccc1)SCC2 (stereo not drawn) | inconclusive: 11% | – |
| O=c1c(Oc2ccccc2Br)coc2cc(OCc3ccccc3)ccc12 | inconclusive: 15% | – |
| N#CC(C#N)=C1c2cc([N+](=O)[O-])ccc2-c2c1cccc2[N+](=O)[O-] | inconclusive: 27% | – |
| COc1ccc2cc3cc(C(=O)N(C)c4cc(Cl)ccc4OC)oc3nc2c1 | inconclusive: 20% | – |
| CCOc1ccc(NC(=O)CC2Nc3cc(C)c(C)cc3NC2=O)c([N+](=O)[O-])c1 (stereo not drawn) | inconclusive: 26% | – |
| O=C(Nc1cccc(C(F)(F)F)c1)N[C@H]1CO[C@H]2[C@@H]1OC[C@@H]2Nc1nccc(-c2ccc(-c3ccccc3)cc2)n1 | inconclusive: 19% | – |
| Cc1[nH]c2ccccc2c1C(C[N+](=O)[O-])c1ccc(Cl)cc1 (stereo not drawn) | inconclusive: 26% | – |
| CSc1nnc2c(n1)OC(C)N(C(=O)c1ccccc1)c1ccccc1-2 (stereo not drawn) | inactive | – |
| CCOC(=O)c1sc(=NC(=O)c2cccc3ccccc23)n(C)c1C | inactive | – |
| CCN(C(=O)c1cc2c(=O)n3cccc(C)c3nc2n1C)C1CCCCC1 | inconclusive: 15% | – |
| Cc1ccc(Cn2c(SCC(O)CO)nc3c2c(=O)[nH]c(=O)n3C)cc1 (stereo not drawn) | inconclusive: 11% | – |
| CNC(=O)[C@@H]1C[C@@H](N)CN1C(=O)c1ccoc1COc1ccc(C)cc1 | inactive | – |
| O=C(CSc1nc2ccc([N+](=O)[O-])cc2[nH]1)Nc1ccc(F)c(F)c1 | inconclusive: 10% | – |

Four consecutive records already listed:

| Compound | inhibition | outcome |
| --- | --- | --- |
| COc1ccc(C(=O)N2C[C@@H](O)[C@H](NCCc3cnc[nH]3)C2)cc1 | inconclusive: 13% | – |
| CCc1cc2c(=O)oc(-c3ccc(Br)cc3)nc2s1 | inconclusive: 11% | – |
| COc1ccc(NC(=O)C(C)Oc2ccccc2)c([N+](=O)[O-])c1 (stereo not drawn) | inconclusive: 26% | – |
| O=[N+]([O-])c1cc([N+](=O)[O-])c2cn(-c3ccc(OC(F)(F)F)cc3)nc2c1 | inconclusive: 27% | – |
